# Results taken from patent US11963975B2, “Therapeutic targets for facioscapulohumeral muscular dystrophy” (University of Massachusetts, priority 2016, dated 2024).
# For at least one compound, name, drawing or mass did not settle the structure.
# Test system: primary myoblasts isolated from FSHD1-affected and FSHD-asymptomatic patients
# Test: small molecule treatment of primary myoblasts, DUX4 expression
# Assay type: cell-based, human
# Conditions: alone, or in combination; FIG. 15
# Description: Trichostatin A (TSA) is a histone deacetylase inhibitor, 5-aza-2′-deoxycytidine (5′ADC) is a DNA methylation inhibitor and chaetocin (CH) is a histone methyltransferase inhibitor.
smiles,measurement,value
CN1C(=O)[C@@]23C[C@]4([C@]56C[C@@]78SS[C@@](CO)(C(=O)N7[C@H]5Nc5ccccc56)N(C)C8=O)c5ccccc5N[C@@H]4N2C(=O)[C@]1(CO)SS3 [chaetocin],DUX4 expression (in words),affect DUX4 expression
